Measurements reported in PubChem BioAssay AID1259308 (NCATS, 2017).

Screen: 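Genes whose loss raises luciferase production in HEK293 cells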 (primary screen)
Cells: human HEK293 embryonic kidney cells stably expressing firefly luciferase (HEK-CMV-Luc2-Hygro)
Reagent: single siRNA against human genes, 0.8 pmol siRNA per well
Duration: 72 h
Detection: 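Luciferase light (ONE-Glo) measured on one replicate plate set and viability (CellTiter-Glo) on the other, scaled to a negative control siRNA, with robust z-scores and luciferase per cell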
Reading the numbers: total luciferase, z-score and total luciferase, % of control: higher = more reporter protein produced; luciferase per cell, z-score: higher = more reporter output per viable cell; viable cells, % of control: higher = more viable cells
Active means: 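Active when the median/MAD z-score for overall luciferase is greater than 3; a gene was taken forward for validation with new siRNAs if at least two of its three siRNAs passed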
Meaning of the calls: active = raised luciferase; inactive = no rise
The deposit covers about 59,000 reagents; this is an unselected part. About 1,510 of them (2.6%) were called active. 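Calls use total luciferase alone and ignore viability, so some active siRNAs may act by altering cell number.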 The numbers tell different reagents against one gene apart.

Target gene	reagent	total luciferase, z-score	total luciferase, % of control	luciferase per cell, z-score	viable cells, % of control	call
OR52N1	1	-2.3	36.1	-1.87	66	inactive
OR52N1	2	0.975	101	-0.144	118	inactive
OR52N1	3	-0.405	73.8	-0.455	93	inactive
RIDA	1	0.242	86.7	0.236	91	inactive
RIDA	2	-1.15	59	0.368	59.9	inactive
RIDA	3	-0.289	76.1	-1.24	118	inactive
CYP2C19	1	-0.0362	81.2	0.869	72.2	inactive
CYP2C19	2	0.908	99.9	1.36	78.1	inactive
CYP2C19	3	-1.48	52.4	-1.72	92.3	inactive
CNOT6L	1	0.387	89.6	0.305	92.4	inactive
CNOT6L	2	-0.598	70	-0.529	89.9	inactive
CNOT6L	3	-1.07	60.5	-0.747	82.4	inactive
PARK7	1	0.0177	82.2	-0.415	103	inactive
PARK7	2	0.159	85.1	0.14	91.6	inactive
PARK7	3	-0.0449	81	-0.161	94.4	inactive
TTC39B	1	-1.59	50.3	-1.6	85.6	inactive
TTC39B	2	-1.35	55	-1.14	83	inactive
TTC39B	3	0.944	101	0.712	93.2	inactive
GASK1B	1	-0.173	78.4	0.251	82.1	inactive
GASK1B	2	-0.876	64.5	-0.923	91.9	inactive
GASK1B	3	-0.145	79	1.85	54.2	inactive

In a second layout: results already given.
{"Target gene": "RIDA", "reagent": 3, "total luciferase, z-score": -0.289, "total luciferase, % of control": 76.1, "luciferase per cell, z-score": -1.24, "viable cells, % of control": 118, "call": "inactive"}
{"Target gene": "CYP2C19", "reagent": 1, "total luciferase, z-score": -0.0362, "total luciferase, % of control": 81.2, "luciferase per cell, z-score": 0.869, "viable cells, % of control": 72.2, "call": "inactive"}
{"Target gene": "CYP2C19", "reagent": 2, "total luciferase, z-score": 0.908, "total luciferase, % of control": 99.9, "luciferase per cell, z-score": 1.36, "viable cells, % of control": 78.1, "call": "inactive"}
{"Target gene": "CYP2C19", "reagent": 3, "total luciferase, z-score": -1.48, "total luciferase, % of control": 52.4, "luciferase per cell, z-score": -1.72, "viable cells, % of control": 92.3, "call": "inactive"}

More reagents follow.
Target gene	reagent	total luciferase, z-score	total luciferase, % of control	luciferase per cell, z-score	viable cells, % of control	call
SART1	1	2.13	124	3.47	55.7	inactive
SART1	2	3.03	142	4.26	51.7	active
SART1	3	5.89	199	4.02	77.2	active
LOC729770 (retired record)	1	2.89	139	2.65	77.5	inactive
LOC729770 (retired record)	2	0.55	92.8	0.0775	102	inactive
LOC729770 (retired record)	3	-0.306	75.8	-1.29	119	inactive
ST6GALNAC6	1	-0.375	74.4	-0.679	99.4	inactive
ST6GALNAC6	2	1.8	118	2.06	76.5	inactive
ST6GALNAC6	3	0.361	89.1	-0.0222	100	inactive
ACSL4	1	-0.797	66	-0.733	89.5	inactive
ACSL4	2	0.283	87.5	1.3	69.4	inactive
ACSL4	3	-0.292	76.1	-0.582	99.1	inactive
